Some entries share one result that the patent states for a list of compounds.
Tested on: primary cultured rat hippocampal neurons
Experiment: Cell death of cultured neurons under kinase inhibitor treatment
Format: cell-based
Details: data not shown
Protocol: Roscovitine and CHIR99021 were purchased from Sigma-Aldrich (St. Louis, Mo.) and were diluted in DMSO to four 1000× concentration aliquots for ultimate concentrations in neurobasal medium of […]. Primary cultured rat hippocampal neurons transfected with dsRed and eGFP-P301L-tau were treated with one of four 1000× aliquots or DMSO vehicle on DIV 20-22. Treated cells were incubated for 24 hours prior to imaging on DIV 21-23. Cell death was visually assessed under differential interference contrast (DIC) for decreased cell density, lost soma adhesion, gross qualitative neurite retraction. If evidence of cell death was observed under DIC, cells were fixed in 4% sucrose and 4% paraformaldehyde in PBS and stained with 300 nM DAPI in PBS. DAPI stained cells were analyzed under fluorescent microscopy for nuclear pyknosis and karyorrhexis; dsRed expressing cells were analyzed for spine loss. If no cell death was evident under DIC, live fluorescent images were acquired and analyzed as above.

## CC[C@H](CO)Nc1nc(NCc2ccccc2)c2ncn(C(C)C)c2n1 [roscovitine]
  drug concentration at which overt cell death was observed: exceeded 5 M

— US20190263867A1, “TAU PEPTIDES, METHODS OF MAKING, AND METHODS OF USING” (priority 2018, published 2019)
